These results are taken from patent US20120107933A1 (GOVERNMENT OF THE UNITED STATES AS REPRESENTED BY THE …, published 2012).

Amino acid sequences for entries named in this document (tags omitted). A change or cut given only in a name is not applied to a line headed by its entry. Chains listed by the source or under a name are the forms on record and can include a tag or linker.
recombinant mesothelin protein produced in E. coli (Q13421, form named): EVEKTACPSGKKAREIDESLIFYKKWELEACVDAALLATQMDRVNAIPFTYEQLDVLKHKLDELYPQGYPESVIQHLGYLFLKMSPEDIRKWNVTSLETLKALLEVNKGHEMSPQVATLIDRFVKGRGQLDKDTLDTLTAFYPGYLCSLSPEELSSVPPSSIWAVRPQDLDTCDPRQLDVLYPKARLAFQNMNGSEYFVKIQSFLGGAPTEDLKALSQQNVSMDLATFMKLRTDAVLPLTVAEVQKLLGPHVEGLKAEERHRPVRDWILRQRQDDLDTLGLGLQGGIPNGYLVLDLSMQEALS

These are yes or no findings as the source states them, for the method shown. Some binding calls cover weakened binding; strength is not graded here.

This test deals with recombinant mesothelin protein produced in E. coli (UniProt Q13421). The test is described as follows: phage ELISA. (ELISA stands for enzyme-linked immunosorbent assay.)

B1: HN1 scFv (monoclonal phage scFv) (scFv)
scFv: QVQLVQSGAEVKRPGASVQVSCRASGYSINTYYMQWVRQAPGAGLEWMGVINPSGVTSYAQKFQGRVTLTNDTSTNTVYMQLNSLTSADTAVYYCARWALWGDFGMDVWGKGTLVTVSSGGGGSGGGGSGGGGSDIQMTQSPSTLSASIGDRVTITCRASEGIYHWLAWYQQKPGKAPKLLIYKASSLASGAPSRFSGSGSGTDFTLTISSLQPDDFATYYCQQYSNYPLTFGGGTKLEIK
For B1, the binding result is “binds”.
